PMC12906810, “ZmMYB127 Modulates Maize Kernel Texture and Size by Integrating the Synthesis of Starch, Zein Proteins and Auxin”

How the values were obtained:
[1] = molecular target: T1, OPAQUE2 (O2) ORF fused into the pGBKT7 vector (maize (Zea mays L.)) (UniProt P12959); assay: two-hybrid; O2 or PBF1 in pGBKT7, ZmMYB127 in pGADT7, co-transformed into Y2H gold yeast; growth on SD/-Leu-Trp and SD/-Leu-Trp-His-Ade plates, culture dilutions 1 to 1/1000
T1 sequence: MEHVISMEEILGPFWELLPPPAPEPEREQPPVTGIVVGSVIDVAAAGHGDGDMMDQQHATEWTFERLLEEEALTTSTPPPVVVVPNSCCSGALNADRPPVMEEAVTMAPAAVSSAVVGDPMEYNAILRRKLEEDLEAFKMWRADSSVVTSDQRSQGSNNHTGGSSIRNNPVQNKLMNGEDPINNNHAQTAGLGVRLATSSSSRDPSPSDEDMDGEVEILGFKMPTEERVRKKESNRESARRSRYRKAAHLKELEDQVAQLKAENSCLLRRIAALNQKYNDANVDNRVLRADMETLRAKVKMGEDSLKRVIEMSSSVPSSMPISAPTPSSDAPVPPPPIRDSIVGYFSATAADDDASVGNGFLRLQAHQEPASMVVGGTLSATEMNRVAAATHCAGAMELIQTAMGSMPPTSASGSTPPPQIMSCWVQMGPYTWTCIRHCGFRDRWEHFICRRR

[2] = molecular target: T2, prolamin-box binding factor 1 (PBF1) ORF fused into the pGBKT7 vector (maize (Zea mays L.)) (UniProt O24463); assay: as above
T2 sequence: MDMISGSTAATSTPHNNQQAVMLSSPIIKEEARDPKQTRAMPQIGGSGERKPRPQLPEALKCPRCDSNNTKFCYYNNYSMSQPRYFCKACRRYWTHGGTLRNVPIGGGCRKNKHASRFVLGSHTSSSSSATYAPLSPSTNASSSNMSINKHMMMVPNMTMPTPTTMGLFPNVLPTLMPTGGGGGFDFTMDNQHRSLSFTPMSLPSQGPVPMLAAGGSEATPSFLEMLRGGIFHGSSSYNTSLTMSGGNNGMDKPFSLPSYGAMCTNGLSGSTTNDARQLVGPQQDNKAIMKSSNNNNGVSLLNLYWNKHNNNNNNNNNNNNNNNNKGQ

[3] = molecular target: T3, PBF1-cLUC (maize (Zea mays L.)) (UniProt O24463); assay: split reporter; split luciferase complementation; ZmMYB127-nLUC with O2-cLUC or PBF1-cLUC in N. benthamiana leaves; Luc images after 2 days
T3 sequence: T2 sequence

[4] = molecular target: T4, O2-cLUC (maize (Zea mays L.)) (UniProt P12959); assay: as above
T4 sequence: T1 sequence

[5] = molecular target: GST-ZmMYB127 (maize (Zea mays L.)); assay: pull-down; purified GST-ZmMYB127 or GST control immobilised on Glutathione Sepharose beads at 4°C for 2 h; His-PBF1 or His-O2 added for another 2 h; five washes with PBS; immunoblot with anti-GST and anti-His; both purified

- binding [1]: binds
- binding [2]: binds
Molecule: ZmMYB127 fused into the pGADT7 vector (maize (Zea mays L.))

- binding [3]: binds
- binding [4]: binds
Molecule: ZmMYB127-nLUC (maize (Zea mays L.))

- binding [5]: binds
B1: His-PBF1 (protein, UniProt O24463 1-328)
chain: T2 sequence

- binding [5]: binds
B2: His-O2 (protein, UniProt P12959 1-453)
chain: T1 sequence

No constants are given. Whether binding was seen depends on the method and setting. Binding can be weak; no strength is given. Sequences can lack the tags named with a protein. For part of these data: In cells and extracts the contact can be indirect. One block for each molecule: values may come before it.
